Values from PubChem BioAssay AID1259308 (NCATS, 2017).

- Screen: 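Knock-downs that increase output of a recombinant reporter protein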 (primary screen)
- Cells: human HEK293 embryonic kidney cells stably expressing firefly luciferase (HEK-CMV-Luc2-Hygro)
- Knock-down reagent: single siRNA against human genes, 0.8 pmol siRNA per well
- Time to read-out: 72 h
- Read-out: 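Luciferase light (ONE-Glo) measured on one replicate plate set and viability (CellTiter-Glo) on the other, scaled to a negative control siRNA, with robust z-scores and luciferase per cell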
- Reading the numbers: total luciferase, z-score and total luciferase, % of control: higher = more reporter protein produced
- Call rule: 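Active when the median/MAD z-score for overall luciferase is greater than 3; a gene was taken forward for validation with new siRNAs if at least two of its three siRNAs passed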
- Meaning of the calls: active = raised luciferase; inactive = no rise
This is one part, drawn at random, of about 59,000 deposited reagents. Of all reagents, about 1,510 (2.6%) got an active call. 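Calls use total luciferase alone and ignore viability, so some active siRNAs may act by altering cell number.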 Entries without a mark were called inactive. The numbers tell different reagents against one gene apart. Not all columns of the deposit are shown. Reagent sequences are not shown.

no.	Gene	reagent	total luciferase, z-score	total luciferase, % of control
1	ZNF551	1	0.302	87.9
2	ZNF551	2	-1.06	60.7
3	ZNF551	3	-0.726	67.4
4	TAPT1	1	0.615	94.1
5	TAPT1	2	-0.0879	80.1
6	TAPT1	3	-0.4	73.9
7	MYO15A	1	2.12	124
8	MYO15A	2	0.109	84.1
9	MYO15A	3	-0.407	73.8
10	CEP152	1	-0.0309	81.3
11	CEP152	2	-1.43	53.4
12	CEP152	3	0.727	96.3
13	OTUD4	1	-1.45	53.1
14	OTUD4	2	-0.665	68.7
15	OTUD4	3	0.143	84.7
16	RHBDD1	1	-0.342	75.1
17	RHBDD1	2	-0.486	72.2
18	RHBDD1	3	1.39	110
19	CREB1	1	-1.14	59.3
20	CREB1	2	-0.406	73.8
21	CREB1	3	-0.268	76.6
22	FBXL20	1	1.21	106
23	FBXL20	2	2.02	122
24	FBXL20	3	-0.134	79.2
25	CHGB	1	-2.16	38.9
26	CHGB	2	-0.101	79.9
27	CHGB	3	-1.49	52.3
28	ESAM	1	-2.26	36.9
29	ESAM	2	-0.204	77.8
30	ESAM	3	0.448	90.8

9 entries from above, sorted by “total luciferase, % of control”, descending.
Gene	reagent	total luciferase, z-score	total luciferase, % of control
FBXL20	2	2.02	122
RHBDD1	3	1.39	110
FBXL20	1	1.21	106
CHGB	2	-0.101	79.9
FBXL20	3	-0.134	79.2
CREB1	3	-0.268	76.6
CREB1	2	-0.406	73.8
CREB1	1	-1.14	59.3
CHGB	1	-2.16	38.9

The results go on.
no.	Gene	reagent	total luciferase, z-score	total luciferase, % of control
31	ADGRE4P	1	1.5	112
32	ADGRE4P	2	0.063	83.1
33	ADGRE4P	3	0.752	96.8
34	MUCL1	1	-0.592	70.1
35	MUCL1	2	-0.344	75.1
36	MUCL1	3	1.9	120
37	RINT1	1	-1.02	61.6
38	RINT1	2	1.18	105
39	RINT1	3	-0.0936	80
40	LINC01561	1	-0.497	72
41	LINC01561	2	-1.77	46.6
42	LINC01561	3	0.744	96.7
43	HLA-DMB	1	1.35	109
44	HLA-DMB	2	-0.896	64.1
45	HLA-DMB	3	0.263	87.1
46	SOX8	1	-0.484	72.3
47	SOX8	2	-0.931	63.4
48	SOX8	3	1.41	110
49	POU6F1	1	-0.16	78.7
50	POU6F1	2	2.89	139
51	POU6F1	3	-2.37	34.8
52	MGAM	1	0.966	101
53	MGAM	2	-0.394	74
54	MGAM	3	-0.254	76.8
55	FAM153B	1	-0.0476	80.9
56	FAM153B	2	1.03	102
57	FAM153B	3	0.497	91.8
58	OAZ2	1	0.657	94.9
59	OAZ2	2	0.68	95.4
60	OAZ2	3	0.782	97.4
61	DDX56	1	-1.84	45.2
62	DDX56	2	0.61	94
63	DDX56	3	-1.9	44.1
64	PRR22	1	0.674	95.3
65	PRR22	2	0.123	84.3
66	PRR22	3	2.09	123
67	RTBDN	1	-1.33	55.5
68	RTBDN	2	-1.29	56.3
69	RTBDN	3	1.18	105
70	COQ4	1	-0.36	74.7
71	COQ4	2	1.07	103
72	COQ4	3	-0.644	69.1
73	PSKH1	1	-0.736	67.2
74	PSKH1	2	1.26	107
75	PSKH1	3	-1.23	57.4
